T1: TAK1 in RAW264.7 cells transfected with the indicated plasmids (Figure 6C) (UniProt Q62073)
T1 sequence: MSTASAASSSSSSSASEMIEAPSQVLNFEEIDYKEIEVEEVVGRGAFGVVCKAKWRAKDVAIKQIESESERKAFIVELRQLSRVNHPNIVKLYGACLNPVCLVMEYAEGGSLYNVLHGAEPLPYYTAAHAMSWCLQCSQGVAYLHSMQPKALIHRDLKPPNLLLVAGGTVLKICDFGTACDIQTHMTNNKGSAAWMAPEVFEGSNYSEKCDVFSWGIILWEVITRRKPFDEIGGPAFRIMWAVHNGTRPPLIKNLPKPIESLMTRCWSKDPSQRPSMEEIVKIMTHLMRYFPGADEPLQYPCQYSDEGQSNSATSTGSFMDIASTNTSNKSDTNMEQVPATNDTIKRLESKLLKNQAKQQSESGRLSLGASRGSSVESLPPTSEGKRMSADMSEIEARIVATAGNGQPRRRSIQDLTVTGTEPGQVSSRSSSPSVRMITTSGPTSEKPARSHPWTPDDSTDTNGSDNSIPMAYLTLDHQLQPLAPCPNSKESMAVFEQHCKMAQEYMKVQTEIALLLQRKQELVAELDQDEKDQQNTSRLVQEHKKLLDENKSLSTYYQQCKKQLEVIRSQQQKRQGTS

Chains of the proteins cited; added tags and fusions are not shown. Residues count along the entry.
UniProt Q9QUK6, residues 26-835: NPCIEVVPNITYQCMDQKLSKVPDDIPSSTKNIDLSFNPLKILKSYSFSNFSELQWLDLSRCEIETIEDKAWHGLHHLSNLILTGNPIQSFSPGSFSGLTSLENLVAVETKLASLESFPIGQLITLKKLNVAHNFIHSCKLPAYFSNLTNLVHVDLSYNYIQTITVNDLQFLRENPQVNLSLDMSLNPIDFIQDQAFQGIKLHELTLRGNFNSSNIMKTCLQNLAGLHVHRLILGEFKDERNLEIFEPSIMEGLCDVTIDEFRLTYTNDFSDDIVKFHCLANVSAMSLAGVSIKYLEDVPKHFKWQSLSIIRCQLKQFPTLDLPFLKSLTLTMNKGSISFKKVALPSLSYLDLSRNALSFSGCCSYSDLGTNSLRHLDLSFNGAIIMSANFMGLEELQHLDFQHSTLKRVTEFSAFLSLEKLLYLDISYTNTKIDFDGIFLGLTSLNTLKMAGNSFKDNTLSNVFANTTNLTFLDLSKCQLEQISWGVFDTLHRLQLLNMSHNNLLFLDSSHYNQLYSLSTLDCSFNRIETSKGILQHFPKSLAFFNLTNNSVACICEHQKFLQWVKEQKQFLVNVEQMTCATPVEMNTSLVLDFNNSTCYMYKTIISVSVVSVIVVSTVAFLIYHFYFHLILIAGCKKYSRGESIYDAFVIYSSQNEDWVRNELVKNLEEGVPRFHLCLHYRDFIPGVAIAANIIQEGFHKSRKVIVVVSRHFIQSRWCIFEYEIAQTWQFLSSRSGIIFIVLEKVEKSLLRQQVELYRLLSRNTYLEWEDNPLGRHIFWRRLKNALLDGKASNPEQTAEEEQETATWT
UniProt Q8BJQ4: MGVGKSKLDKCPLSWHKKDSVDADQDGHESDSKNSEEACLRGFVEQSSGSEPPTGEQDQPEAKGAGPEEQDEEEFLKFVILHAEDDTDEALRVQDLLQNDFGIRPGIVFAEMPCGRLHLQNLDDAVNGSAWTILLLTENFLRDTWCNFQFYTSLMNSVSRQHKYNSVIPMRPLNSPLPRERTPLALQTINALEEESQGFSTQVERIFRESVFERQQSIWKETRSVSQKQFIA
UniProt Q62406: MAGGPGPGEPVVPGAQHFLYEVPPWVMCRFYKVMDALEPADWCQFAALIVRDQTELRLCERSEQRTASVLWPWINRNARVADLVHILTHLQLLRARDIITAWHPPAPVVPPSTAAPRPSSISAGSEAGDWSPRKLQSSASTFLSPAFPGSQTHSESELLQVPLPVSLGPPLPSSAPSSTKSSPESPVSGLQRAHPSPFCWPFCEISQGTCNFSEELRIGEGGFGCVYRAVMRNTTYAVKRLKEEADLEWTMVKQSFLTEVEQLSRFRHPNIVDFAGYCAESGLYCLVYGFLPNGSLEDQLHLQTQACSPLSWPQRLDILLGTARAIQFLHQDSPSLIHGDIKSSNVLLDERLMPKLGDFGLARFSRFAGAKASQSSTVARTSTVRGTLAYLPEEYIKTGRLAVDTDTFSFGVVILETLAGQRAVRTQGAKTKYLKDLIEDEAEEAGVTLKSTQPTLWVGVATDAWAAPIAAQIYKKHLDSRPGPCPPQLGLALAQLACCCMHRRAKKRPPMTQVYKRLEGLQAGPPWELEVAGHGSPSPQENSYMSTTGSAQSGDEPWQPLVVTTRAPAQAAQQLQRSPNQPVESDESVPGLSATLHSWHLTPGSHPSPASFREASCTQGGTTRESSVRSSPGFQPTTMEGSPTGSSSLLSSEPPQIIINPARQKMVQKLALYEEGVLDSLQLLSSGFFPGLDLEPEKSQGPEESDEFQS
UniProt P22366: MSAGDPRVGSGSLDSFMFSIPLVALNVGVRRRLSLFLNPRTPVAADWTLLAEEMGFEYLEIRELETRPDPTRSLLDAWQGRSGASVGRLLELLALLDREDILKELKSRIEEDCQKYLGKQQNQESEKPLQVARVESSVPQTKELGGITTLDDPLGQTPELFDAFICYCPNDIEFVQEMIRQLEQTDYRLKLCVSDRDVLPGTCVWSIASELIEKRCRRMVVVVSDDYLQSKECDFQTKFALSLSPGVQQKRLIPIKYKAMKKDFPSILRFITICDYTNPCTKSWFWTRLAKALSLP

T2: PHGDH-Flag (phosphoglycerate dehydrogenase, Flag-tagged), overexpressed in RAW264.7 cells (UniProt Q61753)
T2 sequence: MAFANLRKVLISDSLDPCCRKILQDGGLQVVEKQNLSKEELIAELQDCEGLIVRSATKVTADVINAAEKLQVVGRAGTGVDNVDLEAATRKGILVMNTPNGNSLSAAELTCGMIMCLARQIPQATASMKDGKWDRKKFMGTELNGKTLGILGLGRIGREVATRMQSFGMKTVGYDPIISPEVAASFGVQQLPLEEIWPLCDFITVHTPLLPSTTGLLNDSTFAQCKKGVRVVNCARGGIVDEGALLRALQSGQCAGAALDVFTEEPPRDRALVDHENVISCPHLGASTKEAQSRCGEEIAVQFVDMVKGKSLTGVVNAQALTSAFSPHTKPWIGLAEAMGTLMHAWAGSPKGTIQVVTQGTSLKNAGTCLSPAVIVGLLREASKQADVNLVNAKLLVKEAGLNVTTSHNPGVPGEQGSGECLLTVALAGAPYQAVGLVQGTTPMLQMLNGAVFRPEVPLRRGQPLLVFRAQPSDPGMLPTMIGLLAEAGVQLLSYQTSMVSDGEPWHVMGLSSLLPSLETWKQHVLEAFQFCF

B1: TAB1 (TAK1-binding protein) in RAW264.7 cells transfected with the indicated plasmids (Figure 6C) (protein, UniProt Q8CF89 1-502)
chain: MAAQRRSLLQSEQQPSWTDDLPLCHLSGVGSASNRSYSADGKGTESHPPEDNWLKFRSENNCFLYGVFNGYDGNRVTNFVAQRLSAELLLGQLNTEHTEADVRRVLLQAFDVVERSFLESIDDALAEKASLQSQLPEGVPQHQLPPQYQKILERLKALEREISGGAMAVVAVLLNSKLYVANVGTNRALLCKSTVDGLQVTQLNMDHTTENEDELFRLSQLGLDAGKIKQMGVICGQESTRRIGDYKVKYGYTDIDLLSAAKSKPIIAEPEIHGAQPLDGVTGFLVLMSEGLYKALEAAHGPGQANQEIAAMIDTEFAKQTSLDAVAQAVVDRVKRIHSDTFASGGERAKFCPRHEDMTLLVRNFGYPLGEMSQPTPTPAPGGRVYPVSVPYSSAQSTSKTSVTLSLVMPSQGQMVNGSHSASTLDEATPTLTNQSPTLTLQSTNTHTQSSSSSSDGGLFRSRPAHSLPPGEDGRVEPYVDFAEFYRLWSVDHGEQSVMTAP
B2: TRAF6 in RAW264.7 cell extracts (enzyme, UniProt P70196 1-530)
chain: MSLLNCENSCGSSQSSSDCCAAMAASCSAAVKDDSVSGSASTGNLSSSFMEEIQGYDVEFDPPLESKYECPICLMALREAVQTPCGHRFCKACIIKSIRDAGHKCPVDNEILLENQLFPDNFAKREILSLTVKCPNKGCLQKMELRHLEDHQVHCEFALVNCPQCQRPFQKCQVNTHIIEDCPRRQVSCVNCAVSMAYEEKEIHDQSCPLANIICEYCGTILIREQMPNHYDLDCPTAPIPCTFSVFGCHEKMQRNHLARHLQENTQLHMRLLAQAVHNVNLALRPCDAASPSRGCRPEDPNYEETIKQLESRLVRQDHQIRELTAKMETQSMYVGELKRTIRTLEDKVAEMEAQQCNGIYIWKIGNFGMHLKSQEEERPVVIHSPGFYTGRPGYKLCMRLHLQLPTAQRCANYISLFVHTMQGEYDSHLPWPFQGTIRLTILDQSEALIRQNHEEVMDAKPELLAFQRPTIPRNPKGFGYVTFMHLEALRQGTFIKDDTLLVRCEVSTRFDMGGLRKEGFQPRSTDAGV
B3: IRAK4 in RAW264.7 cell extracts (enzyme, UniProt Q8R4K2 1-459)
chain: MNKPLTPSTYIRNLNVGILRKLSDFIDPQEGWKKLAVAIKKPSGDDRYNQFHIRRFEALLQTGKSPTCELLFDWGTTNCTVGDLVDLLVQIELFAPATLLLPDAVPQTVKSLPPREAATVAQTHGPCQEKDRTSVMPMPKLEHSCEPPDSSSPDNRSVESSDTRFHSFSFHELKSITNNFDEQPASAGGNRMGEGGFGVVYKGCVNNTIVAVKKLGAMVEISTEELKQQFDQEIKVMATCQHENLVELLGFSSDSDNLCLVYAYMPNGSLLDRLSCLDGTPPLSWHTRCKVAQGTANGIRFLHENHHIHRDIKSANILLDKDFTAKISDFGLARASARLAQTVMTSRIVGTTAYMAPEALRGEITPKSDIYSFGVVLLELITGLAAVDENREPQLLLDIKEEIEDEEKTIEDYTDEKMSDADPASVEAMYSAASQCLHEKKNRRPDIAKVQQLLQEMSA
B4: TRIF in RAW264.7 cell extracts (protein, UniProt Q80UF7 1-732)
chain: MDNPGPSLRGAFGILGALERDRLTHLKHKLGSLCSGSQESKLLHAMVLLALGQDTEARVSLESLKMNTVAQLVAHQWADMETTEGPEEPPDLSWTVARLYHLLAEENLCPASTRDMAYQVALRDFASQGDHQLGQLQNEAWDRCSSDIKGDPSGFQPLHSHQGSLQPPSASPAVTRSQPRPIDTPDWSWGHTLHSTNSTASLASHLEISQSPTLAFLSSHHGTHGPSKLCNTPLDTQEPQLVPEGCQEPEEISWPPSVETSVSLGLPHEISVPEVSPEEASPILPDALAAPDTSVHCPIECTELSTNSRSPLTSTTESVGKQWPITSQRSPQVPVGDDSLQNTTSSSPPAQPPSLQASPKLPPSPLSSASSPSSYPAPPTSTSPVLDHSETSDQKFYNFVVIHARADEQVALRIREKLETLGVPDGATFCEEFQVPGRGELHCLQDAIDHSGFTILLLTASFDCSLSLHQINHALMNSLTQSGRQDCVIPLLPLECSQAQLSPDTTRLLHSIVWLDEHSPIFARKVANTFKTQKLQAQRVRWKKAQEARTLKEQSIQLEAERQNVAAISAAYTAYVHSYRAWQAEMNKLGVAFGKNLSLGTPTPSWPGCPQPIPSHPQGGTPVFPYSPQPPSFPQPPCFPQPPSFPQPPSFPLPPVSSPQSQSFPSASSPAPQTPGPQPLIIHHAQMVQLGVNNHMWGHTGAQSSDDKTECSENPCMGPLTDQGEPLLETPE
B5: IKKβ in RAW264.7 cell extracts (enzyme, UniProt O88351 1-757)
chain: MSWSPSLPTQTCGAWEMKERLGTGGFGNVIRWHNQATGEQIAIKQCRQELSPKNRNRWCLEIQIMRRLNHPNVVAARDVPEGMQNLAPNDLPLLAMEYCQGGDLRRYLNQFENCCGLREGAVLTLLSDIASALRYLHENRIIHRDLKPENIVLQQGEKRLIHKIIDLGYAKELDQGSLCTSFVGTLQYLAPELLEQQKYTVTVDYWSFGTLAFECITGFRPFLPNWQPVQWHSKVRQKSEVDIVVSEDLNGAVKFSSSLPFPNNLNSVLAERLEKWLQLMLMWHPRQRGTDPQYGPNGCFRALDDILNLKLVHVLNMVTGTVHTYPVTEDESLQSLKTRIQENTGILETDQELLQKAGLVLLPDKPATQCISDSKTNEGLTLDMDLVFLLDNSKINYETQITPRPPPESVSCILQEPKRNLSFFQLRKVWGQVWHSIQTLKEDCNRLQQGQRAAMMSLLRNNSCLSKMKNAMASTAQQLKAKLDFFKTSIQIDLEKYKEQTEFGITSDKLLLAWREMEQAVEQCGRENDVKHLVERMMALQTDIVDLQRSPMGRKQGGTLDDLEEQARELYRKLREKPRDQRTEGDSQEMVRLLLQAIQSFEKKVRVIYTQLSKTVVCKQKALELLPKVEEVVSLMNEDERTVVRLQEKRQKELWNLLKIACSKVRGPVSGSPDSMNVSRLSHPGQLMSQPSSACDSLPESDKKSEELVAEAHALCSRLESALQDTVKEQDRSFTTLDWSWLQMEDEERCSLEQACD
B6: IRF3 in RAW264.7 cell extracts (protein, UniProt P70671 1-419)
chain: METPKPRILPWLVSQLDLGQLEGVAWLDESRTRFRIPWKHGLRQDAQMADFGIFQAWAEASGAYTPGKDKPDVSTWKRNFRSALNRKEVLRLAADNSKDPYDPHKVYEFVTPGARDFVHLGASPDTNGKSSLPHSQENLPKLFDGLILGPLKDEGSSDLAIVSDPSQQLPSPNVNNFLNPAPQENPLKQLLAEEQWEFEVTAFYRGRQVFQQTLFCPGGLRLVGSTADMTLPWQPVTLPDPEGFLTDKLVKEYVGQVLKGLGNGLALWQAGQCLWAQRLGHSHAFWALGEELLPDSGRGPDGEVHKDKDGAVFDLRPFVADLIAFMEGSGHSPRYTLWFCMGEMWPQDQPWVKRLVMVKVVPTCLKELLEMAREGGASSLKTVDLHISNSQPISLTSDQYKAYLQDLVEDMDFQATGNI
B7: TAK1 (transforming growth factor-β–activated kinase 1), endogenous in RAW264.7 cells (enzyme, UniProt Q62073 1-579)
chain: T1 sequence

These are yes or no findings as the source states them, for the method shown. In cells and extracts the contact can be indirect. Some results given as binding are weak or reduced against the parent protein; the word gives no strength. For some assays here: Tags and fused reporters may be left off the sequences shown.

The target in one test is T1, TAK1 in RAW264.7 cells transfected with the indicated plasmids (Figure 6C). Briefly: co-IP; RAW264.7 cells transfected with the indicated plasmids and treated with LPS for 30 min; immunoprecipitation and immunoblot. (Immunoblotting shows a protein as a band on a membrane.)
In the case of B1, the binding result was “binds”.

A further test addresses T2, PHGDH-Flag (phosphoglycerate dehydrogenase, Flag-tagged), overexpressed in RAW264.7 cells. Briefly: co-IP; PHGDH-Flag precipitated with anti-Flag beads from RAW264.7 cell extracts with or without LPS stimulation; native lysis buffer; immunoblot.
Regarding “TLR4 (Toll-like receptor 4) in RAW264.7 cell extracts (from UniProt Q9QUK6 26-835)”, the binding entry is on record as “no binding”.

For the molecule “TRAM in RAW264.7 cell extracts (from UniProt Q8BJQ4 1-232)”, the binding entry is “no binding”. Take “IRAK1 in RAW264.7 cell extracts (from UniProt Q62406 1-710) (enzyme)”: the binding entry is given as “no binding”.

“MyD88 in RAW264.7 cell extracts (from UniProt P22366 1-296)”: the binding result is listed as “no binding”. As to B2, the binding entry is “no binding”. On the same count and under the same terms, with B3 the entry was “no binding”. On the same count and under the same terms, to B4 belongs “no binding”. On the same count and under the same terms, with B5 the entry was “no binding”; with B6, “no binding”. For the molecule B7, the binding entry is reported as “binds”.

The record behind these values is publication PMC12509985, “Phosphoglycerate dehydrogenase interacts with and inhibits the protein kinase TAK1 to mitigate septic shock” (The Journal of Biological Chemistry, 2025).
